This is one part of the list.
Experiments:
Assay in all cases: log2 fold change, soluble protein after heating vs DMSO (PISA); higher = thermal stabilisation; K562 lysate, 10 uM; active = over 0.2 and 3.5 SD of the protein, either way, in both replicates (recomputed)
alvocidib = compound: CN1CC[C@H](c2c(O)cc(O)c3c(=O)cc(-c4ccccc4Cl)oc23)[C@H](O)C1 [alvocidib]
In short: (§1)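 A 30 min treatment with 10 μM compound was applied to crude K562 extract at 1 mg/mL protein in PBS pH 7.4 with 1 mM MgCl2. Heating for 3 min spanned 48°C-58°C, after which aliquots were pooled, adjusted to 0.5% NP-40 at 4°C and spun at 21,000xg for 90 min. TMTpro 16plex LC-MS/MS of the supernatant, with channel sums equalised, gave values recorded as log-two fold change in thermal stability against solvent controls, from duplicates.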

Protein sequences, listed by entry. Tags and fused reporters are not part of them. Lines headed by an entry give the natural chain unless they say otherwise; changes in a name come on top.
UniProt Q969T4: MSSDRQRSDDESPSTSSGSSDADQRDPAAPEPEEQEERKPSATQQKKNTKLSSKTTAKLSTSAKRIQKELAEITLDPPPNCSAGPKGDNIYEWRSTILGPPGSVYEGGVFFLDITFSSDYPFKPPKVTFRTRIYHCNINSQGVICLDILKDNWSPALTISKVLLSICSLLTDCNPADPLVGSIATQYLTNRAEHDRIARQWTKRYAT
UniProt Q9BTX7: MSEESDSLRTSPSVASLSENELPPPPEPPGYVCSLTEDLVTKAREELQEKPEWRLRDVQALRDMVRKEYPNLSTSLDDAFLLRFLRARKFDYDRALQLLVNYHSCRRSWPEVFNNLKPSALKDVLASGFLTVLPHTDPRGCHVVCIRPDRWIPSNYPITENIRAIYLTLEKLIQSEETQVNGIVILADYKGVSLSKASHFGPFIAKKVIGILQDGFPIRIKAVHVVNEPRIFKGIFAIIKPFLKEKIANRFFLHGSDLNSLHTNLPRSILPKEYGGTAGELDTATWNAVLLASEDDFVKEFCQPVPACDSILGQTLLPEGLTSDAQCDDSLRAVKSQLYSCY
UniProt Q9BUF5, whole entry, looked up: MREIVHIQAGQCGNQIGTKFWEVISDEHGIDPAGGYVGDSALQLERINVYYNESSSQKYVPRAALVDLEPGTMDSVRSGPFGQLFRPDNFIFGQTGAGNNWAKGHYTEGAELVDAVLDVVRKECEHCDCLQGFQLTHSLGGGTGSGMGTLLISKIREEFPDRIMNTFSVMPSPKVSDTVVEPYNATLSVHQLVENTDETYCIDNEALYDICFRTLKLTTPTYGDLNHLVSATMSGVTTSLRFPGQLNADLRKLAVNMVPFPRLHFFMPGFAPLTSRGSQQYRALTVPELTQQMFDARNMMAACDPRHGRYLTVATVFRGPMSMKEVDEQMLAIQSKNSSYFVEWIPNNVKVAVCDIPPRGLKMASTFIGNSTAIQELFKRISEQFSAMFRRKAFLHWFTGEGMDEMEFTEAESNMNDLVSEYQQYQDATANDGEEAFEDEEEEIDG
UniProt Q9GZX9: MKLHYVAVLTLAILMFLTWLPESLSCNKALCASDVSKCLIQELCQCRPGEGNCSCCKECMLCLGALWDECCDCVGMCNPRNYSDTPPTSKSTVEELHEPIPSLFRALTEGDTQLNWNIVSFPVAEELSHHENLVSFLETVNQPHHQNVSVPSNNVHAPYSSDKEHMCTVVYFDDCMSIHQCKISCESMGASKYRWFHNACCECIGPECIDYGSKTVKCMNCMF
UniProt Q5JXB2: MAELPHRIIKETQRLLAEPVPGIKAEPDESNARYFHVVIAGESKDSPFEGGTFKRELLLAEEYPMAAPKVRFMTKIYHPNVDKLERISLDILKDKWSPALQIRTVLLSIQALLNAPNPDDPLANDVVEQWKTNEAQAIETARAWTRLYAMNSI
UniProt Q9BQE3, whole entry, looked up: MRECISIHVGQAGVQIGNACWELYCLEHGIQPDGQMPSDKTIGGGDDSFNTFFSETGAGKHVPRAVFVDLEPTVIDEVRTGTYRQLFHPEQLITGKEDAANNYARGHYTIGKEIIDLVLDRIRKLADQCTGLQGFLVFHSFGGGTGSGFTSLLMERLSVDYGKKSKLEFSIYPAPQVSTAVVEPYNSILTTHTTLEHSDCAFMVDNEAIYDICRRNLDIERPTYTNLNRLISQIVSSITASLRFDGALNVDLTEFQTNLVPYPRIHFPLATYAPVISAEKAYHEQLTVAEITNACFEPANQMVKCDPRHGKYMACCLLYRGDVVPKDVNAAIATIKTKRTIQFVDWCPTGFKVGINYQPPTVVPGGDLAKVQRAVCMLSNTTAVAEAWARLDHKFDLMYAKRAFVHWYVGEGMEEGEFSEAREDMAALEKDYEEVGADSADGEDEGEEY
UniProt Q99757: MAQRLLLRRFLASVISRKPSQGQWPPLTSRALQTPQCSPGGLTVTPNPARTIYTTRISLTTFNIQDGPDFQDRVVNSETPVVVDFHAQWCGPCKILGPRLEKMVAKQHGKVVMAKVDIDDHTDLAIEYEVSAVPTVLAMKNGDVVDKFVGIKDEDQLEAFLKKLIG
UniProt P22314: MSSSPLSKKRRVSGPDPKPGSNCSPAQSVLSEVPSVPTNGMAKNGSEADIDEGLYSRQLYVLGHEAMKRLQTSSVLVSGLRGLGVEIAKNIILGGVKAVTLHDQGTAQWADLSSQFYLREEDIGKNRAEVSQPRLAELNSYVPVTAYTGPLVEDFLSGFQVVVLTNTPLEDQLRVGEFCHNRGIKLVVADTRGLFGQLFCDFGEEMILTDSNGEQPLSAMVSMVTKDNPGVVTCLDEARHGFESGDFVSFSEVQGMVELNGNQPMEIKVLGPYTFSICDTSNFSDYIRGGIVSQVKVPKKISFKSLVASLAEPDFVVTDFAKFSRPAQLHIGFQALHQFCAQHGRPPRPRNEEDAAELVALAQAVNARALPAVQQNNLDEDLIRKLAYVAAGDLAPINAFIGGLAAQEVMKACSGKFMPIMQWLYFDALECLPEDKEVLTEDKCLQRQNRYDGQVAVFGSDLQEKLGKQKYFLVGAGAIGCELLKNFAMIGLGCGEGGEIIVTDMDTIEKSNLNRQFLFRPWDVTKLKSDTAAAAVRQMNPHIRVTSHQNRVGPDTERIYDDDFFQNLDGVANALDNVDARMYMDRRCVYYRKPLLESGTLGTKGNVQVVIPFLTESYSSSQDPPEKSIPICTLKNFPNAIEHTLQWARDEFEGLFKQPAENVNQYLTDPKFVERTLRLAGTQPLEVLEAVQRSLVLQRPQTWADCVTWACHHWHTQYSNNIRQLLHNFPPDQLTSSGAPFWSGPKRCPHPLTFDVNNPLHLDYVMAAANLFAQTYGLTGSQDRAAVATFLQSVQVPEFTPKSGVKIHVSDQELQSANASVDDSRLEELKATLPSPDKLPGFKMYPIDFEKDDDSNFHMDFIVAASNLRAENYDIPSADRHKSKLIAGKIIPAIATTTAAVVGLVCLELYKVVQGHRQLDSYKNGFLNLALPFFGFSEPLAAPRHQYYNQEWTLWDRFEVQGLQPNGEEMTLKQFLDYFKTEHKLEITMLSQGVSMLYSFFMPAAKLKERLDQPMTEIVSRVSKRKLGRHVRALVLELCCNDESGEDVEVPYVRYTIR
UniProt Q9NUQ3: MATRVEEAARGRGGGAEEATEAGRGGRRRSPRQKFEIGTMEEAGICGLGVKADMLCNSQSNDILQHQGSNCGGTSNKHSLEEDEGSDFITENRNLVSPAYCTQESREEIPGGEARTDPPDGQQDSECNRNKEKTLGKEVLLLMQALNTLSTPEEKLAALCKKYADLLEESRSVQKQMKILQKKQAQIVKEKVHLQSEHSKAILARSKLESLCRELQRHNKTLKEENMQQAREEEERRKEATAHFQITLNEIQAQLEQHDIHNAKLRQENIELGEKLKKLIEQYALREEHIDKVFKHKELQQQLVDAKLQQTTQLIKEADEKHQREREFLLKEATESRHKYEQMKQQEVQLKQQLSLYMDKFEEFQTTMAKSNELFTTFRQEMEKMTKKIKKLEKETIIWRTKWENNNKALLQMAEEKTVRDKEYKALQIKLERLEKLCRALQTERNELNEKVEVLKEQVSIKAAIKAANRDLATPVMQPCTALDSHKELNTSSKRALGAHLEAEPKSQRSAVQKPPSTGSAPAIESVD
UniProt P40222: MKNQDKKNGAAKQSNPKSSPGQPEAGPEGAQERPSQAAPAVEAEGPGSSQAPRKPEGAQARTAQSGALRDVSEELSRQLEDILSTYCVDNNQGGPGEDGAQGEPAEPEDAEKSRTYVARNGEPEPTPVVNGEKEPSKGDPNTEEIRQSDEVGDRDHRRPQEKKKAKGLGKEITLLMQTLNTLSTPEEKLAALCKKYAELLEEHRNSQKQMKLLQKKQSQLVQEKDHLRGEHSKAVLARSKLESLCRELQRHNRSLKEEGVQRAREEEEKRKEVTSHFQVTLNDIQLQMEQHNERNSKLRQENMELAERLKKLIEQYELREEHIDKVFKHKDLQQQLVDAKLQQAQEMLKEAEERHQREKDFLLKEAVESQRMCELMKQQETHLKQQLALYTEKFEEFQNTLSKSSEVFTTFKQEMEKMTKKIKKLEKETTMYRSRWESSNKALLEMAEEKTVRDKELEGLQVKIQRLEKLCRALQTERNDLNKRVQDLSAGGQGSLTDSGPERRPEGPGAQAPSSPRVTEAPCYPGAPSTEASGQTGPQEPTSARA
UniProt Q9BRA2: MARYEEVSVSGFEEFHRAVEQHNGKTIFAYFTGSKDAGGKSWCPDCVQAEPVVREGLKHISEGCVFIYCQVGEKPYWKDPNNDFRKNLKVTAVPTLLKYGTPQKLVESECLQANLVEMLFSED
UniProt Q9BZX2: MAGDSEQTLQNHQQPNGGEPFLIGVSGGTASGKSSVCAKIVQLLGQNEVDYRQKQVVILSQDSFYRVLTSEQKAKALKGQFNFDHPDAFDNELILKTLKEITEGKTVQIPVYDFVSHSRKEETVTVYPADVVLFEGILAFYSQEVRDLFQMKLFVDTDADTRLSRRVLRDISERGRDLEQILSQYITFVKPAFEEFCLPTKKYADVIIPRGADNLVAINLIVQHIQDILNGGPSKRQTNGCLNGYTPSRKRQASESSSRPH
UniProt Q9NV66: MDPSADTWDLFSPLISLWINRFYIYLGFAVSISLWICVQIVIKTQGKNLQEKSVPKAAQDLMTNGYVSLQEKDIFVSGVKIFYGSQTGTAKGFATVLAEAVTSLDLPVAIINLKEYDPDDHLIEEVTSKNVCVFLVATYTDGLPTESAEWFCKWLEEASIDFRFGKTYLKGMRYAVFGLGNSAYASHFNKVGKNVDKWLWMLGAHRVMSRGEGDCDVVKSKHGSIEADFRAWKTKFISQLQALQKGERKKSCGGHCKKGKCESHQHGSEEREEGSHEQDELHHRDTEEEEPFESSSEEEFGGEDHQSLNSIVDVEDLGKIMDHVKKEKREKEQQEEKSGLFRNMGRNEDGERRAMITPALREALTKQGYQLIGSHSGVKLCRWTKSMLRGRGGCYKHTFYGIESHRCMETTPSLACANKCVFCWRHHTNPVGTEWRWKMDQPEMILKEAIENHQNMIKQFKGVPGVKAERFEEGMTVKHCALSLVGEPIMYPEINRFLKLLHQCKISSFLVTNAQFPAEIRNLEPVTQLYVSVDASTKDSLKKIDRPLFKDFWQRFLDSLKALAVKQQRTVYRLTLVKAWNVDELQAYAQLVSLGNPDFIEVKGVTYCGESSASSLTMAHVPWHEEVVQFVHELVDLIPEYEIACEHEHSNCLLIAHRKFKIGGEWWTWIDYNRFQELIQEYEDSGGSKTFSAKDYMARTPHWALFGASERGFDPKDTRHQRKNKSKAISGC
UniProt P0CG48, whole entry, looked up: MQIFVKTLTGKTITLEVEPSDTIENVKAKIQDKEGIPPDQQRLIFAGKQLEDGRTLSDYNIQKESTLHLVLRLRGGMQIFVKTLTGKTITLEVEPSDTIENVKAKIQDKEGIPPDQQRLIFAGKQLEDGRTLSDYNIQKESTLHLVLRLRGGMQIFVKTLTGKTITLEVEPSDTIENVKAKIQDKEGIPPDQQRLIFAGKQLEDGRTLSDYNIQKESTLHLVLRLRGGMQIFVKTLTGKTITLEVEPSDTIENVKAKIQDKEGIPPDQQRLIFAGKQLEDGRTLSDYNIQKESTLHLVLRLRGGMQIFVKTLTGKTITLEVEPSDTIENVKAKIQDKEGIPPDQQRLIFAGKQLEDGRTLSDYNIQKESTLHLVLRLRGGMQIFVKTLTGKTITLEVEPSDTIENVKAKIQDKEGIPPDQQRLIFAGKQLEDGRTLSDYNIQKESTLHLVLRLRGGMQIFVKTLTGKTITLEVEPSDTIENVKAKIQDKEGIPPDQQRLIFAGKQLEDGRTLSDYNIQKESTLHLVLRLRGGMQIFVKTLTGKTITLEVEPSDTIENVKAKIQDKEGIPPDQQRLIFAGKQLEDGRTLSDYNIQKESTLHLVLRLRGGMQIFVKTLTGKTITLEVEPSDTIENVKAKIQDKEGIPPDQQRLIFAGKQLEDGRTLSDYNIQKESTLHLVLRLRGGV

Tubastatin A = compound: CN1CCc2c(c3ccccc3n2Cc2ccc(C(=O)NO)cc2)C1 [Tubastatin A]
In short: as §1

[1] = compound: CNC(=O)C1=CC=CC=C1NC2=NC(=NC=C2Cl)NC3=C(C=C(C=C3)N4CCOCC4)OC
In short: as §1

defactinib = compound: CNC(=O)c1ccc(Nc2ncc(C(F)(F)F)c(NCc3nccnc3N(C)S(C)(=O)=O)n2)cc1 [defactinib]
In short: as §1

[2] = compound: CNc1nc(-c2ccc3c(N)n[nH]c3c2)cc(N2C[C@@H](C(=O)NC3CCCCC3)CC[C@H]2C)n1
In short: as §1

encorafenib = compound: COC(=O)N[C@@H](C)CNc1nccc(-c2cn(C(C)C)nc2-c2cc(Cl)cc(NS(C)(=O)=O)c2F)n1 [encorafenib]
In short: as §1

[3] = compound: COC(=O)[C@H](CCSC)NC(=O)C1=C(C=C(C=C1)NC[C@H](CS)N)C2=CC=CC=C2
In short: as §1

alisertib = compound: COc1cc(Nc2ncc3c(n2)-c2ccc(Cl)cc2C(c2c(F)cccc2OC)=NC3)ccc1C(=O)O [alisertib]
In short: as §1

[4] = compound: COc1cc2nc(-c3cc(F)ccc3O)nc(N[C@@H]3CNC[C@H]3C(C)(C)O)c2cc1OC
In short: as §1

gefitinib = compound: COc1cc2ncnc(Nc3ccc(F)c(Cl)c3)c2cc1OCCCN1CCOCC1 [gefitinib]
In short: as §1

lapatinib = compound: CS(=O)(=O)CCNCc1ccc(-c2ccc3ncnc(Nc4ccc(OCc5cccc(F)c5)c(Cl)c4)c3c2)o1 [lapatinib]
In short: as §1

pictilisib = compound: CS(=O)(=O)N1CCN(Cc2cc3nc(-c4cccc5[nH]ncc45)nc(N4CCOCC4)c3s2)CC1 [pictilisib]
In short: as §1

crizotinib = compound: C[C@@H](Oc1cc(-c2cnn(C3CCNCC3)c2)cnc1N)c1c(Cl)ccc(F)c1Cl [crizotinib]
In short: as §1

[5] = compound: C[C@H](C1=CC=C(C=C1)C(=O)NC2=C3C=CNC3=NC=C2)N
In short: as §1

duvelisib = compound: C[C@H](Nc1ncnc2nc[nH]c12)c1cc2cccc(Cl)c2c(=O)n1-c1ccccc1 [duvelisib]
In short: as §1

gandotinib = compound: Cc1cc(Nc2cc(CN3CCOCC3)c3nc(C)c(Cc4ccc(Cl)cc4F)n3n2)n[nH]1 [gandotinib]
In short: as §1

tozasertib = compound: Cc1cc(Nc2cc(N3CCN(C)CC3)nc(Sc3ccc(NC(=O)C4CC4)cc3)n2)n[nH]1 [tozasertib]
In short: as §1

doramapimod = compound: Cc1ccc(-n2nc(C(C)(C)C)cc2NC(=O)Nc2ccc(OCCN3CCOCC3)c3ccccc23)cc1 [doramapimod]
In short: as §1

bafetinib = compound: Cc1ccc(NC(=O)c2ccc(CN3CC[C@H](N(C)C)C3)c(C(F)(F)F)c2)cc1Nc1nccc(-c2cncnc2)n1 [bafetinib]
In short: as §1

[6] = compound: Cc1cccc(CC(=O)N2CCc3c2ccc(-c2cn(C)c4ncnc(N)c24)c3F)n1
In short: as §1

Measured: log2 fold change

UBE2E3 (UniProt Q969T4)
inactive: alvocidib -0.05 | Tubastatin A 0.016 | [1] -0.009 | defactinib 0.02 | [2] 0.009 | encorafenib 0.002 | [3] 0.019 | alisertib 0.039 | [4] 0.023 | gefitinib -0.049 | lapatinib 0.013 | pictilisib -0.003 | crizotinib -0.034 | [5] -0.005 | duvelisib -0.013 | gandotinib 0.047 | tozasertib -0.023 | doramapimod -0.011 | bafetinib -0.036 | [6] 0.074

TTPAL (UniProt Q9BTX7)
inactive: alvocidib -0.058 | Tubastatin A 0.05 | [1] -0.074 | defactinib 0.172 | [2] 0.013 | encorafenib -0.024 | [3] -0.096 | alisertib -0.092 | [4] 0.017 | gefitinib -0.032 | lapatinib 0.024 | pictilisib -0.068 | crizotinib 0.012 | [5] -0.203 | duvelisib 0.107 | gandotinib 0.051 | tozasertib -0.02 | doramapimod -0.029 | bafetinib -0.141 | [6] 0.063

TUBB6 (UniProt Q9BUF5)
inactive: alvocidib 0.023 | Tubastatin A -0.064 | [1] 0.015 | defactinib 0.034 | [2] 0.023 | encorafenib 0.017 | [3] 0.056 | alisertib 0.028 | [4] 0.011 | gefitinib -0.024 | lapatinib -0.038 | pictilisib -0.015 | crizotinib -0.056 | [5] 0.003 | duvelisib 0.009 | gandotinib -0.009 | tozasertib -0.02 | doramapimod -0.047 | bafetinib -0.023 | [6] -0.018

TWSG1 (UniProt Q9GZX9)
inactive: alvocidib -0.011 | Tubastatin A 0 | [1] 0.008 | defactinib 0.008 | [2] 0.208 | encorafenib 0.01 | [3] 0.116 | alisertib 0.071 | [4] 0.085 | gefitinib -0.011 | lapatinib -0.013 | pictilisib -0.021 | crizotinib 0.125 | [5] 0.069 | duvelisib -0.079 | gandotinib -0.034 | tozasertib 0 | doramapimod -0.079 | bafetinib 0.025 | [6] -0.084

TUT4 (UniProt Q5TAX3)
inactive: alvocidib -0.022 | Tubastatin A -0.1 | [1] -0.001 | defactinib 0.002 | [2] 0.039 | encorafenib 0.059 | [3] 0.125 | alisertib 0.01 | [4] -0.014 | gefitinib -0.007 | lapatinib -0.003 | pictilisib -0.041 | crizotinib 0 | [5] -0.064 | duvelisib 0.006 | gandotinib -0.001 | tozasertib 0.047 | doramapimod -0.023 | bafetinib -0.039 | [6] 0.15

UBE2NL (UniProt Q5JXB2)
inactive: alvocidib 0.02 | Tubastatin A 0.057 | [1] -0.033 | defactinib 0.029 | [2] 0.072 | encorafenib 0.018 | [3] -0.005 | alisertib 0.006 | [4] -0.03 | gefitinib -0.016 | lapatinib -0.016 | pictilisib 0.022 | crizotinib 0.003 | [5] 0.035 | duvelisib 0.005 | gandotinib -0.002 | tozasertib 0.07 | doramapimod 0.008 | bafetinib -0.009 | [6] -0.03

TUBA1C (UniProt Q9BQE3)
inactive: alvocidib 0 | Tubastatin A -0.001 | [1] 0.011 | defactinib 0.009 | [2] 0.06 | encorafenib -0.002 | [3] 0.023 | alisertib -0.012 | [4] 0.001 | gefitinib -0.042 | lapatinib 0.004 | pictilisib -0.057 | crizotinib -0.045 | [5] -0.013 | duvelisib -0.019 | gandotinib 0.062 | tozasertib -0.008 | doramapimod -0.026 | bafetinib 0.005 | [6] 0.021

TXN2 (UniProt Q99757)
inactive: alvocidib -0.019 | Tubastatin A 0.079 | [1] 0.027 | defactinib 0.034 | [2] 0.047 | encorafenib -0.063 | [3] -0.15 | alisertib -0.026 | [4] -0.024 | gefitinib -0.037 | lapatinib 0.099 | pictilisib 0.079 | crizotinib 0.053 | [5] 0.008 | duvelisib 0 | gandotinib 0.023 | tozasertib 0.015 | doramapimod -0.011 | bafetinib 0.048 | [6] 0.098

UBA1 (UniProt P22314)
inactive: alvocidib 0.012 | Tubastatin A -0.082 | [1] 0.007 | defactinib -0.011 | [2] -0.026 | encorafenib -0.017 | [3] 0.139 | alisertib 0.001 | [4] 0.002 | gefitinib -0.01 | lapatinib -0.005 | pictilisib -0.003 | crizotinib -0.037 | [5] -0.012 | duvelisib 0.011 | gandotinib -0.017 | tozasertib -0.005 | doramapimod 0.009 | bafetinib -0.017 | [6] 0.023

TXLNG (UniProt Q9NUQ3)
inactive: alvocidib 0.013 | Tubastatin A -0.01 | [1] -0.009 | defactinib 0.001 | [2] -0.009 | encorafenib -0.003 | [3] -0.028 | alisertib 0.019 | [4] 0.005 | gefitinib -0.026 | lapatinib -0.009 | pictilisib 0.005 | crizotinib 0.068 | [5] -0.011 | duvelisib 0.003 | gandotinib 0.031 | tozasertib 0.004 | doramapimod -0.019 | bafetinib 0.034 | [6] -0.004

TXLNA (UniProt P40222)
inactive: alvocidib -0.01 | Tubastatin A 0.042 | [1] 0.023 | defactinib 0.019 | [2] 0.009 | encorafenib -0.003 | [3] -0.04 | alisertib -0.006 | [4] -0.009 | gefitinib -0.019 | lapatinib -0.009 | pictilisib -0.005 | crizotinib 0.062 | [5] 0.037 | duvelisib -0.017 | gandotinib 0.004 | tozasertib -0.004 | doramapimod -0.021 | bafetinib 0.023 | [6] -0.053

Quoted from the results shown (two entries):
TWSG1 (UniProt Q9GZX9)
inactive: alvocidib -0.011 | Tubastatin A 0 | [1] 0.008 | defactinib 0.008 | [2] 0.208 | encorafenib 0.01 | [3] 0.116 | alisertib 0.071 | [4] 0.085 | gefitinib -0.011 | lapatinib -0.013 | pictilisib -0.021 | crizotinib 0.125 | [5] 0.069 | duvelisib -0.079 | gandotinib -0.034 | tozasertib 0 | doramapimod -0.079 | bafetinib 0.025 | [6] -0.084

TUT4 (UniProt Q5TAX3)
inactive: alvocidib -0.022 | Tubastatin A -0.1 | [1] -0.001 | defactinib 0.002 | [2] 0.039 | encorafenib 0.059 | [3] 0.125 | alisertib 0.01 | [4] -0.014 | gefitinib -0.007 | lapatinib -0.003 | pictilisib -0.041 | crizotinib 0 | [5] -0.064 | duvelisib 0.006 | gandotinib -0.001 | tozasertib 0.047 | doramapimod -0.023 | bafetinib -0.039 | [6] 0.15

Remaining list, next part.

TXNDC17 (UniProt Q9BRA2)
inactive: alvocidib -0.01 | Tubastatin A 0.046 | [1] -0.013 | defactinib 0.014 | [2] 0.08 | encorafenib -0.024 | [3] -0.026 | alisertib -0.012 | [4] 0.02 | gefitinib -0.011 | lapatinib 0.005 | pictilisib -0.007 | crizotinib 0.024 | [5] 0.031 | duvelisib 0.053 | gandotinib 0.006 | tozasertib -0.012 | doramapimod -0.034 | bafetinib 0.03 | [6] -0.016

UCK2 (UniProt Q9BZX2)
inactive: alvocidib -0.023 | Tubastatin A -0.071 | [1] 0.031 | defactinib 0.096 | [2] -0.052 | encorafenib 0.023 | [3] 0.02 | alisertib 0.075 | [4] -0.016 | gefitinib 0.026 | lapatinib 0.063 | pictilisib 0 | crizotinib -0.016 | [5] -0.091 | duvelisib 0.001 | gandotinib -0.037 | tozasertib -0.02 | doramapimod 0.075 | bafetinib -0.069 | [6] 0.04

TYW1 (UniProt Q9NV66)
inactive: alvocidib -0.011 | Tubastatin A -0.192 | [1] -0.001 | defactinib 0.016 | [2] -0.008 | encorafenib -0.025 | [3] 0.048 | alisertib 0.118 | [4] -0.06 | gefitinib 0.072 | lapatinib -0.094 | pictilisib -0.084 | crizotinib 0.002 | [5] -0.007 | duvelisib 0.013 | gandotinib -0.037 | tozasertib -0.02 | doramapimod -0.071 | bafetinib -0.18 | [6] 0.015

UBE4A isoform 2 (UniProt Q14139)
inactive: alvocidib 0 | Tubastatin A -0.087 | [1] 0.029 | defactinib 0.011 | [2] -0.073 | encorafenib 0.018 | [3] -0.102 | alisertib 0.018 | [4] 0.013 | gefitinib -0.041 | lapatinib -0.019 | pictilisib -0.007 | crizotinib -0.059 | [5] -0.009 | duvelisib 0.016 | gandotinib -0.15 | tozasertib 0 | doramapimod 0.004 | bafetinib -0.054 | [6] 0.043

UBC (UniProt P0CG48)
inactive: alvocidib 0.178 | Tubastatin A 0.038 | [1] 0.002 | defactinib 0.021 | [2] 0.038 | encorafenib -0.012 | [3] -0.05 | alisertib -0.03 | [4] -0.014 | gefitinib -0.092 | lapatinib 0.012 | pictilisib 0.015 | crizotinib -0.003 | [5] 0.197 | duvelisib -0.01 | gandotinib -0.058 | tozasertib 0.03 | doramapimod -0.008 | bafetinib -0.033 | [6] -0.079

Reference: the supplement of paper PMC10849652
